The values that follow come from PMC8584173, “The Cytotoxic Effect of Copper (II) Complexes with Halogenated 1,3-Disubstituted Arylthioureas on Cancer and Bacterial Cells” (International Journal of Molecular Sciences, 2021).

What all share (format): cell-based, Homo sapiens
Series [1] concerns Glutathione S-transferase A1 (GSTA1_HUMAN). The series is described as follows: LC–MS proteome analysis, GSTA1. Conditions: SW620, 24 h, IC50 concentration; control 91232; Table S1. The method, then:
(§1) Enzymes involved in oxidoreductive potential were analyzed in the cell lysates obtained after treatment cells with selected conjugates for 24 h. Cells were washed with phosphate-buffered saline (PBS) and harvested, then centrifuged at 1000× g for 10 min. Then, lysis buffer (containing protease inhibitor, 1% RIPA Lysis and Extraction Buffer (ThermoFisher)) and cold PBS were added, and samples were sonicated three times in ice bath. Next, the cell lysates were centrifuged at 14,000× g at 4 °C for 15 min, and then supernatants were stored at […] before use. Protein concentration was measured by the Bradford method.
(§2) Normalized protein concentrations (5 µg) from cell lysate were precipitated by ice cold (–20 °C) acetonitrile (ACN, Merck, in ratio 1:4). Then, samples were centrifuged (–9 °C, 30 min., 18,000× g), the supernatant was discarded and ACN excess was evaporated using a vacuum centrifuge (5 min., room temp.). Protein pellet was dissolved in 40 mM ammonium bicarbonate. An amount of 500 mM dithiothreitol (DTT, with final concentration 20 mM) and 1 M iodoacetamide (IAA, with final concentration 40 mM) were used for reduction and alkylation processes. After 16 h of incubation in 37 °C with Trypsin Gold (Promega), digested protein samples were diluted with 0.1% formic acid (ThermoFisher) and centrifuged (+2 °C, 30 min, 18,000× g).
LC–MS analysis was carried out with the use of nanoUHPLC (nanoElute, Bruker) coupled by CaptiveSpray (Bruker) to ESI-Q-TOF mass spectrometer (Compact, Bruker). Two-column separation method was used, i.e., pre-column (300 µm × 5 mm, C18 PepMap 100, 5 µm, 100Å, Thermo Scientific) and Aurora separation column with CSI fitting (75 µm × 250 mm, C18 1.6 µm) in gradient 2% B to 35% B in 90 min with the 300 nL/min flow rate. Mobile phases (A) 0.1% formic acid in water and (B) 0.1% formic acid in ACN were used.
(§3) Sample ionizations were performed at a gas flow of 3.0 L/min, temperature of 150 °C and voltage of the capillary at 1600 V. The quadrupole energy was fixed to 5.0 eV and collision chamber energy 7.0 eV, with an ion transfer time of 90 µs. The ions were analyzed in the positive polarity mode in the range 150–2200 m/z, with the acquisition frequency of the 1 Hz spectrum, as well as with the autoMS/MS system.
The collected spectra were analyzed and calibrated using DataAnalysis software (Bruker) and then identified in ProteinScape (Bruker) by the MASCOT server. Protein identification was conducted using the online SwissProt and NCBIprot databases, and their references and biological significance were identified using Reactome.org, String.org and KEGG.

In series [2] the test system is Glutathione reductase, mitochondrial (GSHR_HUMAN). The series is described as follows: LC–MS proteome analysis, GSHR. Conditions: PC3, 24 h, IC50 concentration; Table S1. As to the method:
as §1, §2
LC–MS analysis was carried out with the use of nanoUHPLC (nanoElute, Bruker) coupled by CaptiveSpray (Bruker) to ESI-Q-TOF mass spectrometer (Compact, Bruker). […]
as §3
(§4) The collected spectra were analyzed and calibrated using DataAnalysis software (Bruker) and then identified in ProteinScape (Bruker) by the MASCOT server. […]

The subject of series [3] is Thioredoxin-dependent peroxide reductase, mitochondrial (PRDX3_HUMAN). Description: LC–MS proteome analysis, PRDX3. Conditions: PC3, 24 h, IC50 concentration; Table S1. The method, then: as §1
Normalized protein concentrations (5 µg) from cell lysate were precipitated by ice cold (–20 °C) acetonitrile (ACN, Merck, in ratio 1:4). […]
as §3, §4

Each structure is given as a SMILES string.

Turning to `O=[N+]([O-])c1cc([N+]2=C(Nc3ccccc3Br)[S][Cu-2]23[S]C(Nc2ccccc2Br)=[N+]3c2ccc(Cl)c([N+](=O)[O-])c2)ccc1Cl` [Compound 1, Copper (II) complex with 1-(2-bromophenyl)-3-(4-chloro-3-nitrophenyl)thiourea], the “Protein intensity, mean (GSTA1)” value in series [1] turned out to be 45787.
With `O=[N+]([O-])c1cc([N+]2=C(Nc3ccc(Br)cc3)[S][Cu-2]23[S]C(Nc2ccc(Br)cc2)=[N+]3c2ccc(Cl)c([N+](=O)[O-])c2)ccc1Cl` [Compound 3, Copper (II) complex with 1-(4-bromophenyl)-3-(4-chloro-3-nitrophenyl)thiourea], the “Protein intensity, mean (GSTA1)” value in series [1] amounted to 41221. The “Protein intensity, mean (GSHR)” value in series [2] was 93164.
For the molecule `O=[N+]([O-])c1cc([N+]2=C(Nc3ccccc3F)[S][Cu-2]23[S]C(Nc2ccccc2F)=[N+]3c2ccc(Cl)c([N+](=O)[O-])c2)ccc1Cl` [Compound 7, Copper (II) complex with 1-(2-fluorophenyl)-3-(4-chloro-3-nitrophenyl)thiourea], the “Protein intensity, mean (GSTA1)” value in series [1] was determined as 33213. Further, the “Protein intensity, mean (GSHR)” value in series [2] was found to be 96786. For the same molecule, the “Protein intensity, mean (PRDX3)” value in series [3] is recorded as 94596.
For the molecule `O=[N+]([O-])c1cc([N+]2=C(Nc3ccc(I)cc3)[S][Cu-2]23[S]C(Nc2ccc(I)cc2)=[N+]3c2ccc(Cl)c([N+](=O)[O-])c2)ccc1Cl` [Compound 8, Copper (II) complex with 1-(4-iodophenyl)-3-(4-chloro-3-nitrophenyl)thiourea], the “Protein intensity, mean (GSTA1)” value in series [1] is recorded as 49567. Further, in series [2], the “Protein intensity, mean (GSHR)” value worked out at 108221. In series [3], the “Protein intensity, mean (PRDX3)” value turned out to be 189285.
